From patent publication US20150368611

Assays:
C/EBPβ (Mus musculus) = target: T1, C/EBPβ (Mus musculus) (UniProt P28033); assay: EMSA; conditions: 5mC at the CpG of CRE (TGAmCGTCA) on both strands; robust binding, completely shifted by anti-C/EBPβ; 10 mM HEPES pH 7.9, 80 mM KCl, 1 mM MgCl2, poly(dI-dC), room temperature; protein in a lysate after overexpression; label: 32P 5' end
T1 sequence (looked up): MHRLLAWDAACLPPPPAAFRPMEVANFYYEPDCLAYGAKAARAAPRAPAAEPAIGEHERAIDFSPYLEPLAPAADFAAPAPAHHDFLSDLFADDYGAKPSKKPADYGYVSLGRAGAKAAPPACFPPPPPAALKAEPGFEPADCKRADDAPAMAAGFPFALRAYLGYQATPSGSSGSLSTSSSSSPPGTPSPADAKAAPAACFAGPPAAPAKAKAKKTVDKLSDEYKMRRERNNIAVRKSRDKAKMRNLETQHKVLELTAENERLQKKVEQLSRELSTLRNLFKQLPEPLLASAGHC

RORγt (Mus musculus) = system: T2, RORγt (Mus musculus); assay: EMSA; conditions: binding completely abolished by co-expression of C/EBPβ; protein in a lysate after overexpression; protein details: mouse cDNA from TH17 cells, nuclear extract; label: 32P 5' end
T2 sequence (looked up, limits assumed): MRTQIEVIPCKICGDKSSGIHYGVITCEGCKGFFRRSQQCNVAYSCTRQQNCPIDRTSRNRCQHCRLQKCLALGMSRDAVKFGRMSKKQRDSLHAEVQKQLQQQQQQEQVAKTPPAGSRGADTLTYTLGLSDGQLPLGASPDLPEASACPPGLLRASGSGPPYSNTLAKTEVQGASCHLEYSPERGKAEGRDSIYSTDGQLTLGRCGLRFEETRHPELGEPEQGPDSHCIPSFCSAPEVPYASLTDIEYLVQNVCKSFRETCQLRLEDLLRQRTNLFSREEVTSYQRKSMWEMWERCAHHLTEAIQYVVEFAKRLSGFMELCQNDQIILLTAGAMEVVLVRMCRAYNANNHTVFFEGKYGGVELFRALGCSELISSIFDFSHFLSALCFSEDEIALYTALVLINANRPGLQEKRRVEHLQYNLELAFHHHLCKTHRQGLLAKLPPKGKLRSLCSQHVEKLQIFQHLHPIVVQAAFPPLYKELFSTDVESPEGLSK

| Sequence | binding result (C/EBPβ (Mus musculus)) | binding result (RORγt (Mus musculus)) |
| --- | --- | --- |
| CCGGCCGCCATGACGTCAATGGCAGAAA (double strand) [Foxp3 TSDR methyl-CRE probe] | binds |  |
| GAAAGTTTTCTGACCCACTTTAAATCAATTT (double strand) [RORE in IL17 CNS2 probe] |  | binds |

Results from cells or extracts need not show a direct contact. Where a protein sequence is shown, tags need not be part of it.
